Test results from the supplement of paper PMC3334620.
Whole data set: some 33,000 sequences, median “E-score (-0.5 to 0.5)” near -0.0014, cut for the highest 2% near 0.25. This is one part of the list.

The sequences below were run against T1, Cad1 (UniProt P24813) (assay: PBM E-score (8-mer binding enrichment) (E-score (-0.5 to 0.5)); higher = stronger / more preferred TF binding). Details: protein concentration: 100 nM; construct: GST-full length.
T1 sequence: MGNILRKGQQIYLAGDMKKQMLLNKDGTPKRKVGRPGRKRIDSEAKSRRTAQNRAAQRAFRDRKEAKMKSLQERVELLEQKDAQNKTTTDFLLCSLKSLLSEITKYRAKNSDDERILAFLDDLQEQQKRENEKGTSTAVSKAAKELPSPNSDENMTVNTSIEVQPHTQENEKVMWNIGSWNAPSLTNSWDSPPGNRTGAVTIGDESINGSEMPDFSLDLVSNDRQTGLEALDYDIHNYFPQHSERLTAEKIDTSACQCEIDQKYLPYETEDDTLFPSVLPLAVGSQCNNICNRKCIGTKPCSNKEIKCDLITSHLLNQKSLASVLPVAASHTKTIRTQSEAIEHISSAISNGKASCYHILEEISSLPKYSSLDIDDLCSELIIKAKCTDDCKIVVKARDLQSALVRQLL
Procedure, shortened: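 Full-length yeast transcription factors or their DNA-binding domains, GST-tagged and expressed with PURExpress, were applied at about 100-200 nM to universal all-10-mer Agilent arrays. These arrays had been made double-stranded by primer extension on fresh or once-stripped slides. Detection used fluorescent anti-GST, normalisation used masliner, and E-scores for ungapped eight-base words pooled with reverse complements came from the Universal PBM Analysis Suite.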

| Sequence | PBM E-score |
| --- | --- |
| CACTGATG | -0.0345 |
| GCGCCGTA | 0.23 |
| GACGGCCA | 0.0269 |
| ATAAAGAG | -0.00445 |
| AAACGTGT | 0.0428 |
| GTATTGAC | -0.0498 |
| ACGACCGA | -0.00871 |
| GGGGAAAC | -0.0901 |
| CTCATGGA | -0.0362 |
| ATCCAATG | -0.111 |
| AAGAGACC | 0.073 |
| GGGATGTA | -0.0343 |
| CCAGGAGC | -0.269 |
| GACACTCC | 0.0191 |
| GACACATC | 0.0666 |
| AAGAGCCA | 0.0145 |
| CTGCGATA | 0.0524 |
| CCTTTTAA | -0.088 |
| AAGTCCGA | -0.107 |
| AGATACGG | 0.0164 |
| TAAAGGGA | -0.0259 |
| GATATAGC | 0.0534 |
| CAAGCCCA | -0.216 |
| CAATCGAA | 0.0916 |

Part of the list above in another layout:
Sequence | PBM E-score
GGGATGTA | -0.0343
CCAGGAGC | -0.269
GACACTCC | 0.0191
GACACATC | 0.0666

Going on with the list.

| Sequence | PBM E-score |
| --- | --- |
| AAGCTGGA | -0.119 |
| CACCATCA | 0.0657 |
| AACTGGTG | -0.221 |
| GTTTCTCA | -0.0493 |
| TAGAGGCA | -0.166 |
| CCACTAGA | -0.323 |
| GCGATGGA | 0.0841 |
| AGTATATA | 0.285 |
| CGCCCCAC | -0.0786 |
| AGCTTGCC | -0.044 |
| AGGACTCC | -0.193 |
| AACGAGCC | -0.0666 |
| ATGCCCTA | -0.228 |
| CCTCTTCG | -0.204 |
| CTTGCCTC | -0.0541 |
| CCCACGAG | -0.0632 |
| ACGTGGAG | -0.0145 |
| AGACTGTC | -0.152 |
| CCGGCTAC | -0.103 |
| CCAAATAG | 0.0103 |
| ATACTGAC | 0.143 |
| TCGAACGA | 0.109 |
| GAGGTATC | -0.162 |
| CATAAATA | 0.171 |

Some of the entries above in a different format.
Sequence | PBM E-score
CGCCCCAC | -0.0786
TCGAACGA | 0.109

Following part.

| Sequence | PBM E-score |
| --- | --- |
| CGGTGTAC | -0.136 |
| CTGAAAAC | 0.0776 |
| CGCGGCTA | 0.128 |
| CGGAGTCC | 0.114 |
| AAGGGCAC | -0.198 |
| GCATTGCA | 0.107 |
| ACTCATAA | -0.0073 |
| CTCTAAAG | -0.144 |
| AGCTCATG | 0.0322 |
| ACGCAACC | 0.135 |
| CTGCCCCC | -0.341 |
| AAAGGTAG | -0.16 |
| CTGACGCC | -0.153 |
| CACTGAAC | 0.06 |
| ACGCGGTC | 0.128 |
| ATCCCTAG | 0.0209 |
| ACCACCTA | -0.202 |
| CGTTGGCA | 0.101 |
| AACATCGT | -0.0182 |
| GGGGTTGA | -0.2 |
| GATAAACC | 0.124 |
| GACCTCTC | 0.0626 |
| CTCGGAAG | -0.0595 |
| AACTACCG | -0.0957 |

| Sequence | PBM E-score |
| --- | --- |
| CTAGAGAC | -0.243 |
| ACGGATTG | 0.143 |
| GATGCTGC | -0.0697 |
| AAAGGGTG | -0.0289 |
| CCTACCGA | -0.0591 |
| CGGGTCGA | -0.055 |
| ACATGTGC | 0.0691 |
| CGGCTTTC | -0.0736 |
| AGCTAGAG | -0.0985 |
| ACCCCTCT | -0.244 |
| ACTCCTTC | -0.167 |
| GAGGTCTA | -0.0987 |
| ACCGTGTG | -0.0277 |
| ACTGTCAG | 0.0975 |
| GTTAGGCA | -0.153 |
| CGCAATCC | 0.248 |
| AATTACTC | 0.239 |
| ATTCAATA | 0.16 |
| CGATCGAC | 0.272 |
| TTCATCAA | -0.038 |
| TATTCTAA | 0.232 |
| TAGCATGA | 0.11 |
